This passage reports binding results from US20230009582A1.

By UniProt entry, the sequences of proteins in these tests, tags left out. Where a name states a change or a piece, a line headed by the entry shows the natural chain unless it says otherwise.
UniProt Q9Y336: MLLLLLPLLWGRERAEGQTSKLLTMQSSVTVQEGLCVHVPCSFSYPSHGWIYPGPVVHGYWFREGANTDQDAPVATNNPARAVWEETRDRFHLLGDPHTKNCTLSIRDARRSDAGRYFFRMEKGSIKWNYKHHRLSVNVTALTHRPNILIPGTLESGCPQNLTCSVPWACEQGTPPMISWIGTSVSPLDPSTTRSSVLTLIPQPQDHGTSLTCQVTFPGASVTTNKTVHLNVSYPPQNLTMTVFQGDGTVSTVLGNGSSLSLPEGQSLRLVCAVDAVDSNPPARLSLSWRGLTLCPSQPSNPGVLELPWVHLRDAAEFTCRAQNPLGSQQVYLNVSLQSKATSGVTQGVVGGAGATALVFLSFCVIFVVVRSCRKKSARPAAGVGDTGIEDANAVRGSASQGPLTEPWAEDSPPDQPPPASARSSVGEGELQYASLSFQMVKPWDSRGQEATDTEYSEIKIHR

No constants are given. Whether binding was seen depends on the method and setting. Some binding calls cover weakened binding; strength is not graded here.

Test [1] addresses Siglec-9 protein (construct not stated; antigen of Examples 3 and 4) (human) (UniProt Q9Y336). Nature of the test: ELISA, Siglec-9 coated at 1 µg/ml, antibody titrated 0-420 nM. (In general: An ELISA detects its analyte on a solid surface through an enzyme-linked reagent.)
Test [2] has the same target. In words: SPR (Carterra LSA), antibody coupled to HC2000M chip, antigen in solution.

B1: monoclonal antibody 68D4 (rabbit) (antibody, V domains shown)
VH: QSLEESGGRLVKPDETLTITCTVSGIDLSSYDMTWVRQAPGKGLEWIGIIYTGGLTYYASWAKGRFTISKTSTTVDLKITSPTTEDTATYFCAREVGDNNNFWGPGTLVTVSS
VL: DVVMTQTPASVSEPVGGTVTIKCQASESVDSGLAWYHQKPGQPPKLLIYDDTDLASGVPSRFKGSRSGTAHTLTISDLECADAATYYCQYTDYGRTYVGTFGGGTEVVIKG
As for B1, the binding result in test [1] and in test [2] was “binds” throughout.

B2: comparative monoclonal antibody mAbA (WO 2017/153433), mouse-human chimera (antibody, human IgG1, kappa, V domains shown)
VH: QVQLQQPGAELVKPGSPVKLSCKASYFTFTSYWMHWVRQRPGQGLEWIGEINPSNGHTNYNEKFESKATLTVDRSSSTAYMQLSSLTSEDSAVFYCANGVESYDFDDALDYWGQGTSVTVSS
VL: DIQMTQTTSSLSASLGDRVTISCRASQDINNYLNWYQQKPDGTIKLLIYYTSRLHSGVPSRFSGSGSGTDYSLTINNLEQEDIATYFCQQGNTLPFTFGGGTKLEIKR
Regarding B2, the binding entry in test [1] is on record as “binds”.

B3: monoclonal antibody 224B1 (rabbit) (antibody, V domains shown)
VH: QSVEESGGRLVTPETPLTLTCTASGFSLSSYYMSWVRQAPGKGLEWIGYIWTDGSAHYATWTKGRFTISKTSSTTVDLKITSPTTEDTATYFCVRANSGSHTYIEKFNLWGPGTLVTVSS
VL: DVVMTQTPASVEATVGGSVTIKCQASPSINDELSWYQQKPGQRPTLLIYEASALESGVPSRFKGSGSGTEFTLTIGDLECADAATYYCQCTYGSRSDISYGNTFGGGTEVVVKG
B3: the binding entry in test [1] and in test [2] was “binds” in each case.

B4: comparative monoclonal antibody 5C6 (WO 2017/075432), mouse-rabbit chimera (antibody, V domains shown)
VH: EVQLQQSGPELVKPGASVRISCKASGYTFTDYNIHWVKQSQGKSLEWIGYIYPYNGDTGYNQKFQNKATLTVDNSSSTAYMELRSLTSEDSAVYYCANGNYLYYYAMDYWGQGTSVTVSS
VL: DVVMTQTPLSLPVSLGDQVSISCSSSQSLVHSNGNTYLHWYLQKSGQSPKLLIYKVSNRFSGVPDRFRGSGSGTDFTLKISRVEAEDLGVYFCSQNTHVPLTFGAGTKLELKG
As to B4, the binding entry in test [1] was “binds”.
